Where “and” joins values, the source holds several entries; their conditions need not be identical. Equal entries are not always repeated. The source gives many values for each of these; only a part stands here.
Assays:
[1] = test system: BxPC-3 pancreas tumor cell line; assay: BxPC-3 human pancreas tumor xenograft model: tumor weight, tumor growth inhibition (TGI); type: in vivo, female athymic nude mice; details: Group 2: ODSH 24 mg/kg BID, IV Days 1-11, SC Days 12-end
Method: Compounds tested in the experiment were as follows. ODSH was made by Pyramid Laboratories, Inc. (Costa Mesa, Calif.). ODSH was provided at a stock concentration of 50 mg/ml and stored at room temperature until use. ODSH was diluted in a 0.9% NaCl solution (B. Braun Medical Inc., Irvine, Calif.) to a concentration of 2.4 mg/ml to deliver 24 mg/kg, in a 10 ml/kg dose volume when administered intravenously. A concentration of 4.8 mg/ml was formulated to deliver a 24 mg/kg dose at a 5 ml/kg dose volume when administered subcutaneously. ODSH was formulated fresh prior to each dose.
Nab-paclitaxel was manufactured by Abraxis BioScience LLC (Bridgewater, N.J.) and diluted in a 0.9% NaCl solution to a concentration of 1.5 mg/ml to deliver 15 mg/kg, in a 10 ml/kg dose volume. All standard agent preparations were made fresh prior to their administration.
BxPC-3 cells were obtained and prepared as follows. The BxPC-3 pancreas tumor cell line was received from American Type Culture Collection (ATCC, Manassas, Va.). Cultures were maintained in RPMI 1640 medium (Hyclone, Logan, Utah) supplemented with 5% fetal bovine serum. The cells were housed in a 5% CO2 atmosphere. The cultures were expanded in tissue culture flasks at a 1:3 split ratio until a sufficient amount of cells were harvested.
BxPC-3 Human Pancreas Tumor Xenograft Model: Female athymic nude mice per treatment condition were inoculated subcutaneously in the right flank with 0.1 ml of a 50% RPMI 1640/50% Matrigel™ (BD Biosciences, Bedford, Mass.) mixture containing a suspension of BxPC-3 tumor cells (approximately 5×10^6 cells/mouse).
Study Director V.1.7.54k (Study Log).
Mean tumor growth inhibition (TGI) was calculated utilizing Formula A below (deaths were not included in the TGI calculations).
All statistical analyses in the xenograft study were performed with GraphPad Prism® v4 software.

neutrophils = assay: Clinical trial, metastatic pancreatic cancer: absolute neutrophil count / neutropenia grade; type: in vivo, human; details: individual patients, ODSH adjunctive to gemcitabine and nab-paclitaxel
From the text: Male and non-pregnant, non-lactating, female patients, aged 18 to 75, with histologically confirmed metastatic adenocarcinoma of the pancreas were enrolled in the trial. […] Treatment consisted of a series of 28-day cycles, wherein the last day of one cycle (e.g., day 28, cycle 1) was immediately followed by the first day of the next cycle (e.g., day 1, cycle 2). […] Nab-paclitaxel and gemcitabine therapy was given as described in the prescribing information for Abraxane® and Gemzar®. See also, Von Hoff et al., 2011, J. […] As a substantially non-anticoagulant heparinoid, ODSH can be administered at a dose that is greater than the fully anticoagulant dose of unfractionated heparin, without concern for anticoagulant effect, as shown in the Results below. An initial run-in period was conducted in which ten patients were treated with the gemcitabine, nab-paclitaxel, and ODSH regimen described above. After all ten patients had completed at least one 28-day cycle, the data were reviewed and an open-label randomized study initiated, with two arms (ODSH arm and Control arm). In the ODSH arm, the dosing regimen was the same as in the run-in period (gemcitabine, nab-paclitaxel, and ODSH). In the Control arm, patients were given the same gemcitabine and nab-paclitaxel regimen as in the run-in period, but without ODSH. […] Platelet counts, total white blood cell counts, and absolute neutrophil counts were performed. Grading of thrombocytopenia and/or neutropenia was performed according to the following standards: [table]

substantially 2-O, 3-O desulfated heparin [ODSH]
Tumor weight (individual mice) ([1]; Day 4): 162 mg
Tumor weight (individual mice) ([1]; Day 8): 218 mg
Tumor weight (individual mice) ([1]; Day 11): 149 mg
Tumor weight (individual mice) ([1]; Day 15): 206 mg
Tumor weight (individual mice) ([1]; Day 18): 778 mg
Tumor weight (individual mice) ([1]; Day 22): 358 mg
Tumor weight (individual mice) ([1]; Day 26): 509 mg
Tumor weight (individual mice) ([1]; Day 30): 697 mg
Tumor weight (individual mice) ([1]; Day 33): 908 mg
Tumor weight (individual mice) ([1]; Day 36): 1,072 mg
Neutrophil Values (neutrophils; Cycle 1 Day 1 (before treatment)): 4.0 ×10^3/μl blood and 6.2 ×10^3/μl blood and 4.5 ×10^3/μl blood
Neutrophil Values (neutrophils; Cycle 1 Day 8): 1.0 ×10^3/μl blood and 4.0 ×10^3/μl blood and 2.2 ×10^3/μl blood
Neutrophil Values (neutrophils; Cycle 1 Day 15): 1.3 ×10^3/μl blood and 3.9 ×10^3/μl blood and 0.9 ×10^3/μl blood
Neutrophil Values (neutrophils; Cycle 2 Day 1): 3.4 ×10^3/μl blood and 8.3 ×10^3/μl blood and 1.9 ×10^3/μl blood
Neutrophil Values (neutrophils; Cycle 2 Day 8): 2.3 ×10^3/μl blood and 1.7 ×10^3/μl blood and 1.8 ×10^3/μl blood
Neutrophil Values (neutrophils; Cycle 2 Day 15): 2.7 ×10^3/μl blood and 2.4 ×10^3/μl blood
Neutrophil Values (neutrophils; Cycle 3 Day 1): 3.1 ×10^3/μl blood and 3.4 ×10^3/μl blood
Neutrophil Values (neutrophils; Cycle 3 Day 8): 1.8 ×10^3/μl blood and 1.5 ×10^3/μl blood (2×)
Neutrophil Values (neutrophils; Cycle 4 Day 1): 3.8 ×10^3/μl blood and 4.4 ×10^3/μl blood
Neutrophil Values (neutrophils; Cycle 4 Day 8): 2.6 ×10^3/μl blood and 1.5 ×10^3/μl blood
Neutrophil Values (neutrophils; Cycle 4 Day 15): 2.9 ×10^3/μl blood and 1.1 ×10^3/μl blood
Neutrophil Values (neutrophils; Cycle 5 Day 1): 5.0 ×10^3/μl blood and 2.0 ×10^3/μl blood
Neutrophil Values (neutrophils; Cycle 5 Day 8): 0.9 ×10^3/μl blood
Neutrophil Values (neutrophils; Cycle 5 Day 15): 2.3 ×10^3/μl blood and 1.0 ×10^3/μl blood
Neutrophil Values (neutrophils; Cycle 6 Day 1): 5.2 ×10^3/μl blood and 2.2 ×10^3/μl blood
Neutrophil Values (neutrophils; Cycle 6 Day 8): 3.7 ×10^3/μl blood and 0.9 ×10^3/μl blood
Neutrophil Values (neutrophils; Cycle 6 Day 15): 1.2 ×10^3/μl blood and 1.1 ×10^3/μl blood
Neutrophil Values (neutrophils; Screen): 7.6 ×10^3/μl blood
